The target in test [1] is MDM2 (mouse (endogenous in activated T cells)) (UniProt P23804). The test is described as follows: co-IP; activated T cells; the experiment stands in Supplementary Fig. 4c; which protein was precipitated is not told in the text (antibodies to DCAF1 and to MDM2 are both listed for IP).
In test [2] the target is DCAF1 (Ddb1-cullin4-associated-factor 1) (mouse (endogenous in CD4+ T cells)) (UniProt Q80TR8). The test is described as follows: co-IP; co-immunoprecipitation of CSN1, CSN2 with DCAF1 in TCR-stimulated CD4+ T cells, immunoblot.

The chains behind the UniProt entries cited, without tags or fusion partners.
UniProt P23804: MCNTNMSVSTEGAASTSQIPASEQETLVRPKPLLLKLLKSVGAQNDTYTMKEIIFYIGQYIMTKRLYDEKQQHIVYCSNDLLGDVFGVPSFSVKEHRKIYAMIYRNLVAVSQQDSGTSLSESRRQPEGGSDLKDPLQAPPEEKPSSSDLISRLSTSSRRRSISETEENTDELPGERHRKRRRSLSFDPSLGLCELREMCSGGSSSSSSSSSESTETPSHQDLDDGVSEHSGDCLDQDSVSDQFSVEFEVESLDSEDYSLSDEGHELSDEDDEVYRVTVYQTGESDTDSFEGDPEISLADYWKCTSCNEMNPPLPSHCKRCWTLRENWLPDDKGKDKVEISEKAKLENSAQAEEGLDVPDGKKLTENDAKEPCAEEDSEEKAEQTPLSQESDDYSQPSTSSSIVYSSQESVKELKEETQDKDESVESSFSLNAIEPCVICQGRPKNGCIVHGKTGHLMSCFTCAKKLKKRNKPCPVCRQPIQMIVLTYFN
UniProt Q80TR8: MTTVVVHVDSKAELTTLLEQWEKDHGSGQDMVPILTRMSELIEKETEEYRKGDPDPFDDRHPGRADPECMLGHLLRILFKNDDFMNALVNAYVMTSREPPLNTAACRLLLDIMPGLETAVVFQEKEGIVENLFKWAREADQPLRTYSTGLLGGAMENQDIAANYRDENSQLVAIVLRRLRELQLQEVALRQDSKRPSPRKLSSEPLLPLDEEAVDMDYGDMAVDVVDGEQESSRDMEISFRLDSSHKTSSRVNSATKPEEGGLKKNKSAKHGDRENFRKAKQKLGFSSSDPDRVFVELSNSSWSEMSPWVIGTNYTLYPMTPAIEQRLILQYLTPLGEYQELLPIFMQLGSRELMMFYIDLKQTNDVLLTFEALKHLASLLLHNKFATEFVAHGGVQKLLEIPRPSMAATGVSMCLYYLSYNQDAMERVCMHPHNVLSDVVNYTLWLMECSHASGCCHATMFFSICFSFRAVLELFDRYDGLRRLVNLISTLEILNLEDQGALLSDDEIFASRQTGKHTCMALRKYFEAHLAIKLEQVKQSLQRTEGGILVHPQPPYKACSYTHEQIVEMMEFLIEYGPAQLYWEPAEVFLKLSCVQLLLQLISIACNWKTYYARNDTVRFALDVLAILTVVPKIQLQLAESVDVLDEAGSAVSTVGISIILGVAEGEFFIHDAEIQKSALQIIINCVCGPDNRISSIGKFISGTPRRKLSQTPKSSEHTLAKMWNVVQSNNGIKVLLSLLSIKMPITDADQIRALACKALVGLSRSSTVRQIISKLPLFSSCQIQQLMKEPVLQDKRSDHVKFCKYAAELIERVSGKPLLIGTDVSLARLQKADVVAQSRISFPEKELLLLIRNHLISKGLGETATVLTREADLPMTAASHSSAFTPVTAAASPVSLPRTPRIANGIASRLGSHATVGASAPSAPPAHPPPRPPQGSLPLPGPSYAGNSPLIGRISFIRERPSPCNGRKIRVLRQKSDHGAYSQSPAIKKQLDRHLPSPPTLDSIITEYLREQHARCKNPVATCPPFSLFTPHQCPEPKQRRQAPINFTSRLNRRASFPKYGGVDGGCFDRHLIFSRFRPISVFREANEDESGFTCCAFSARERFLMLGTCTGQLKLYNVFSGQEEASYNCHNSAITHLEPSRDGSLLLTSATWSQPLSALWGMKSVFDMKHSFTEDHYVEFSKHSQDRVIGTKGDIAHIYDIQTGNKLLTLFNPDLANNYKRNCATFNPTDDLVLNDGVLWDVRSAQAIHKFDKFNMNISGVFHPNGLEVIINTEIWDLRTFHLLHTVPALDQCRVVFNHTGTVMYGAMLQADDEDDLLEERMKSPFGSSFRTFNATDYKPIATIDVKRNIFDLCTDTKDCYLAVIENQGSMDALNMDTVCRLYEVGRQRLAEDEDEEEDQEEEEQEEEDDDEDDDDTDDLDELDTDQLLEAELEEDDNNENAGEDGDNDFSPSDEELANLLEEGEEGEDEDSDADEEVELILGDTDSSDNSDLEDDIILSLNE
UniProt P61202: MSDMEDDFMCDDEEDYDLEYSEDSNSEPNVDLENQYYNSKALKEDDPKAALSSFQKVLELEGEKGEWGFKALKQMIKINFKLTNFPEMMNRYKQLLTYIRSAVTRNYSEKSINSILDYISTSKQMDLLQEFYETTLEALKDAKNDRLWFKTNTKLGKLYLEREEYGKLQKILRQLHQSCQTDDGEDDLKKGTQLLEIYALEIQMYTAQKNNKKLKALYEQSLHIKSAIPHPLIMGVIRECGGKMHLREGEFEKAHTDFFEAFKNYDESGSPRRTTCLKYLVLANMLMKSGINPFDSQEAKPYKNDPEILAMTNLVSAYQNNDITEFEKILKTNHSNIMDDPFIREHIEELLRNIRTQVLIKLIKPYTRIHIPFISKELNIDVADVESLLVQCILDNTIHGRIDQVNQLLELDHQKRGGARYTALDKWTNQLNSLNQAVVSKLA
UniProt Q99LD4: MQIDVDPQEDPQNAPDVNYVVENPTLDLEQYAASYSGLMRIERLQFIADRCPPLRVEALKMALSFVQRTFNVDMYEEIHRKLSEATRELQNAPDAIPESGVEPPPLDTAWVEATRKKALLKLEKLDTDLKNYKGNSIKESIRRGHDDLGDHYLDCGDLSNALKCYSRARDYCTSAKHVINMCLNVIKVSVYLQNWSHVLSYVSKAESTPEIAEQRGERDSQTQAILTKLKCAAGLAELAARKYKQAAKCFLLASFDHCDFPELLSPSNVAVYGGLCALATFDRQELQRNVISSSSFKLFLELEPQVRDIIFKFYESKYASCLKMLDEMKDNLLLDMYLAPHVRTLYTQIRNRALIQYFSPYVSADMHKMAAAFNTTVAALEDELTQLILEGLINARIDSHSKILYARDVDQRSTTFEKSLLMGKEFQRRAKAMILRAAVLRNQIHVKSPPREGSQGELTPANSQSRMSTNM

For three substances, binding results are on record in article PMC4728445.

Results are given in words; binding and its absence hold for the method and conditions named. In cells and extracts the contact can be indirect. Some entries that bind do so weakly or less than the wild type.

Take “DCAF1 (Ddb1-cullin4-associated-factor 1) (from UniProt Q80TR8 1-1506)”: the binding entry in test [1] was “binds”. CSN2 (from UniProt P61202 1-443): the binding entry in test [2] is reported as “binds”.

Turning to CSN1 (from UniProt Q99LD4 1-471), the binding result in test [2] was “binds”.
